These are yes or no findings as the source states them, for the method shown. Some binding calls cover weakened binding; strength is not graded here.
Biological target: exemplary anti-ROR1 (ROR 1-1) chimeric antigen receptor
Experiment: flow cytometry competition on primary CAR-T cells; hROR1-Fc at 10 ug/mL

By UniProt entry, the sequences of proteins in these tests, tags left out. Residues count along the entry.
UniProt Q01973, residues 30-403: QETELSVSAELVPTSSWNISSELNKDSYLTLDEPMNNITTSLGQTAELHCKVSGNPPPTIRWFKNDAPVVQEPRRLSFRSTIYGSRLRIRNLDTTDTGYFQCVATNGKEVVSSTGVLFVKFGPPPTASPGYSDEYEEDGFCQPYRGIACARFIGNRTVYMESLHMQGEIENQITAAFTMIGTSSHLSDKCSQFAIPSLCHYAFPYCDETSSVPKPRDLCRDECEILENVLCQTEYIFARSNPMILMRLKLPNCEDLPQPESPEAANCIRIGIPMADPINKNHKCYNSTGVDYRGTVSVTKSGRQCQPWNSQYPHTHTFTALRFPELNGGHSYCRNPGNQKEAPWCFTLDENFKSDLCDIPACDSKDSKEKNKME

binding: binds
Substance: soluble recombinant ROR1-Fc (soluble human ROR1 fused to an Fc region of an IgG) (from UniProt Q01973 30-403) (Fc fusion)
